Assay results: PubChem BioAssay AID220 (DTP/NCI, 2004)
The list does not hold the whole screen: it gathers tests that were run many times, whatever their T/C, doses with no T/C, and many T/C values between a quarter and a half above the control. Other doses and runs of a compound stand elsewhere. T/C gives the treated animals as a percentage of the vehicle group. Schedule codes are those of the source, taken here to give the interval after Q, in days (D) or hours (H), and the number of doses after X. Some T/C values carry the count of animals alive at the toxicity check (mostly the fifth day); without a count, all were alive then. Some entries give survivors of the animals treated and no T/C: the source holds a T/C of zero for them, seemingly a mark for toxic or unscored doses. Survivors were counted at the toxicity check, usually on the fifth day, unless a day is given; later deaths do not show. Some doses were run more than once; their values stand side by side, smallest first.

Tested on: CD8F1 mice, subcutaneous mammary adenocarcinoma, T/C%
Assay: NCI In Vivo Anticancer Drug Screen. Data for tumor model Mammary Adenocarcinoma CD8F1 (subcutaneous) in CD8F1
Details: higher T/C = larger tumour
Outline: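 Ratio of treated to vehicle-control outcome, based on either survival or tumor size, in mice bearing transplantable tumors given the test compound.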

[1] = T/C endpoint: median tumor weight change, dose: 62.5 mg/kg/injection, schedule: Q01DX001 (ip), vehicle: saline with Tween-80
[2] = T/C endpoint: median tumor weight change, dose: 125.0 mg/kg/injection, schedule: Q01DX001 (ip), vehicle: saline with Tween-80

In the case of `NS(=O)(=O)OCCCCCCCOS(N)(=O)=O`, the survivor count (T/C endpoint: median tumor weight change, dose: 500.0 mg/kg/injection, schedule: Q01DX001 (ip), vehicle: saline with Tween-80) was 0 of 10 on day 28 and 2 of 10 on day 36 and the survivor count (T/C endpoint: median tumor weight change, dose: 1000.0 mg/kg/injection, schedule: Q01DX001 (ip), vehicle: saline with Tween-80) was 0 of 10 on day 36.
`O=NN(CCCl)C(=O)NCCO` was tested, and the survivor count (T/C endpoint: median tumor weight change, dose: 31.3 mg/kg/injection, schedule: Q01DX001 (ip), vehicle: water) was 0 of 9 on day 33, the survivor count (T/C endpoint: median tumor weight change, dose: 32.0 mg/kg/injection, schedule: Q01DX001 (ip), vehicle: water) was 5 of 10 on day 29 and the survivor count (T/C endpoint: median tumor weight change, dose: 62.5 mg/kg/injection, schedule: Q01DX001 (ip), vehicle: water) was 0 of 10 on day 33. The survivor count (T/C endpoint: median tumor weight change, dose: 125.0 mg/kg/injection, schedule: Q01DX001 (ip), vehicle: water) was 0 of 10 on day 33 and the survivor count (T/C endpoint: median tumor weight change, dose: 250.0 mg/kg/injection, schedule: Q01DX001 (ip), vehicle: water) was 0 of 10 on day 33.
In the case of `CC1(C)COCN1COCCOCN1COCC1(C)C`, the T/C (T/C endpoint: median tumor weight change, dose: 12.5 mg/kg/injection, schedule: Q01DX001 (ip), vehicle: saline, evaluated on day 43) was 135 % of control, the survivor count (T/C endpoint: median tumor weight change, dose: 200.0 mg/kg/injection, schedule: Q01DX001 (ip), vehicle: saline) was 2 of 10 on day 43 and the survivor count (T/C endpoint: median tumor weight change, dose: 500.0 mg/kg/injection, schedule: Q01DX001 (ip), vehicle: saline) was 1 of 10 on day 26. The survivor count (T/C endpoint: median tumor weight change, dose: 1000.0 mg/kg/injection, schedule: Q01DX001 (ip), vehicle: saline) was 0 of 10 on day 26.
In the case of `COc1cccc2c1C(=O)c1c(O)c3c(c(O)c1C2=O)C[C@@](O)(C(=O)CO)C[C@@H]3OC1CC(N(C)C)C(O)C(C)O1` (stereo partly specified), the T/C (T/C endpoint: median tumor weight (est.), dose: 1.78 mg/kg/injection, schedule: Q07DX005 (ip), vehicle: water, evaluated on day 30) was 145 % of control.
For `Cc1ccccc1N(CC1CO1)CC1CO1` (stereo unspecified), the survivor count (T/C endpoint: median tumor weight (est.), dose: 25.0 mg/kg/injection, schedule: Q07DX005 (ip), vehicle: saline) was 4 of 10 on day 30 and the survivor count (T/C endpoint: median tumor weight (est.), dose: 800.0 mg/kg/injection, schedule: Q07DX005 (ip), vehicle: saline) was 5 of 10 on day 30.
In the case of `O=C(CO)c1ccc([N+](=O)[O-])cc1`, the T/C (T/C endpoint: median tumor weight (est.), dose: 100.0 mg/kg/injection, schedule: Q07DX005 (ip), vehicle: saline with Tween-80, evaluated on day 30) was 126 % of control.
In the case of `CN(C)N=Nc1cccc(C(N)=O)c1`, the T/C (T/C endpoint: median tumor weight (est.), dose: 20.0 mg/kg/injection, schedule: Q07DX005 (ip), vehicle: Klucel (hydroxypropylcellulose) (HPC), evaluated on day 30) was 130 % of control [9 of 10 alive on day 30], the survivor count (T/C endpoint: median tumor weight (est.), dose: 160.0 mg/kg/injection, schedule: Q07DX005 (ip), vehicle: Klucel (hydroxypropylcellulose) (HPC)) was 1 of 10 on day 30 and the survivor count (T/C endpoint: median tumor weight (est.), dose: 320.0 mg/kg/injection, schedule: Q07DX005 (ip), vehicle: Klucel (hydroxypropylcellulose) (HPC)) was 0 of 10 on day 30.
With `CC(=O)[C@]1(O)Cc2c(O)c3c(c(O)c2[C@@H](OC2CC(N)C(O)C(C)O2)C1)C(=O)c1c(O)cccc1C3=O` (stereo partly specified) the T/C (T/C endpoint: median tumor weight (est.), dose: 0.13 mg/kg/injection, schedule: Q07DX005 (ip), vehicle: water, evaluated on day 30) was 126 % of control, the T/C (T/C endpoint: median tumor weight (est.), dose: 0.22 mg/kg/injection, schedule: Q07DX005 (ip), vehicle: water, evaluated on day 30) was 147 % of control and the T/C (T/C endpoint: median tumor weight (est.), dose: 0.36 mg/kg/injection, schedule: Q07DX005 (ip), vehicle: water, evaluated on day 30) was 138 % of control.
With `CCCC(=O)Nc1ncnc2c1ncn2C1OC2COP(=O)(O)OC2C1OC(=O)CCC` (stereo unspecified) the T/C (T/C endpoint: mean tumor weight, dose: 100.0 mg/kg/injection, schedule: Q01DX009 (ip), vehicle: saline, evaluated on day 73) was 140 % of control.
`Nc1nc(=S)c2ncn(C3CC(O)C(CO)O3)c2[nH]1` (stereo unspecified) was tested, and the T/C (T/C endpoint: median tumor weight (est.), dose: 100.0 mg/kg/injection, schedule: Q07DX005 (ip), vehicle: suspension in saline, evaluated on day 30) was 125 % of control, the survivor count (T/C endpoint: median tumor weight (est.), dose: 160.0 mg/kg/injection, schedule: Q07DX005 (ip), vehicle: saline with Tween-80) was 1 of 10 on day 30 and 5 of 10 and the survivor count (T/C endpoint: median tumor weight (est.), dose: 400.0 mg/kg/injection, schedule: Q07DX005 (ip), vehicle: suspension in saline) was 6 of 10 on day 30.
For `COc1ccc(C(=O)/C(Br)=C/C(=O)O)cc1`, the survivor count (T/C endpoint: mean tumor weight, dose: 100.0 mg/kg/injection, schedule: Q01DX009 (ip), vehicle: saline) was 2 of 10, the T/C (T/C endpoint: median tumor weight (est.), dose: 8.0 mg/kg/injection, schedule: Q01DX005 (ip), vehicle: saline, evaluated on day 30) was 125 % of control and the T/C (T/C endpoint: median tumor weight (est.), dose: 16.0 mg/kg/injection, schedule: Q04DX005 (ip), vehicle: saline, evaluated on day 30) was 125 % of control. For the same compound, the T/C (T/C endpoint: median tumor weight (est.), dose: 32.0 mg/kg/injection, schedule: Q04DX005 (ip), vehicle: saline, evaluated on day 30) was 133 % of control, the survivor count (T/C endpoint: median tumor weight (est.), dose: 128.0 mg/kg/injection, schedule: Q04DX005 (ip), vehicle: saline) was 1 of 10 and the survivor count (T/C endpoint: median tumor weight (est.), dose: 128.0 mg/kg/injection, schedule: Q07DX005 (ip), vehicle: saline) was 3 of 10.
In the case of `CCCCCCCC(=O)[O][Hg][CH2]C1COC([CH2][Hg][O]C(=O)CCCCCCC)CO1` (stereo unspecified), the survivor count (T/C endpoint: median tumor weight (est.), dose: 50.0 mg/kg/injection, schedule: Q07DX005 (ip), vehicle: saline with Tween-80) was 4 of 10 on day 30.
For `CC[C@H]1CN2CCc3cc(OC)c(OC)cc3[C@@H]2C[C@@H]1C[C@@H]1c2cc(OC)c(OC)cc2CCN1CCN(CCCl)CCCl`, the T/C (T/C endpoint: mean tumor weight, dose: 2.5 mg/kg/injection, schedule: Q07DX006 (ip), vehicle: Klucel (hydroxypropylcellulose) (HPC), evaluated on day 43) was 136 % of control and the T/C (T/C endpoint: mean tumor weight, dose: 20.0 mg/kg/injection, schedule: Q07DX005 (ip), vehicle: Klucel (hydroxypropylcellulose) (HPC), evaluated on day 31) was 140 % of control [9 of 10 alive].
With `O=[n+]1c2ccccc2n([O-])c2ccccc21.[Cl][Ni][Cl]` the survivor count [1] was 3 of 10 on day 36, the survivor count [2] was 0 of 10 on day 36 and the survivor count (T/C endpoint: median tumor weight change, dose: 250.0 mg/kg/injection, schedule: Q01DX001 (ip), vehicle: saline with Tween-80) was 0 of 10 on day 36.
In the case of `CC1CCC(NC(=O)N(CCCl)N=O)CC1` (stereo unspecified), the survivor count (T/C endpoint: median tumor weight (est.), dose: 32.0 mg/kg/injection, schedule: Q07DX005 (ip), vehicle: Klucel (hydroxypropylcellulose) (HPC)) was 4 of 10 on day 30, the survivor count (T/C endpoint: median tumor weight (est.), dose: 64.0 mg/kg/injection, schedule: Q07DX005 (ip), vehicle: Klucel (hydroxypropylcellulose) (HPC)) was 1 of 10 on day 30 and the survivor count (T/C endpoint: median tumor weight change, dose: 106.1 mg/kg/injection, schedule: Q01DX001 (ip), vehicle: Klucel (hydroxypropylcellulose) (HPC)) was 0 of 10 on day 32. For the same compound, the survivor count (T/C endpoint: median tumor weight change, dose: 128.0 mg/kg/injection, schedule: Q01DX001 (ip), vehicle: Klucel (hydroxypropylcellulose) (HPC)) was 0 of 10 on day 32.
In the case of `NC(=S)c1cn(C2OC(CO)C(O)C2O)c2ncnc(N)c12` (stereo unspecified), the survivor count (T/C endpoint: median tumor weight change, dose: 25.0 mg/kg/injection, schedule: Q01DX001 (ip), vehicle: suspension in saline) was 6 of 10 on day 31 and the survivor count (T/C endpoint: median tumor weight change, dose: 50.0 mg/kg/injection, schedule: Q01DX001 (ip), vehicle: suspension in saline) was 0 of 10 on day 31.
`Cc1ccc(C2NC(=O)c3ccccc3N2)s1` (stereo unspecified) was tested, and the T/C (T/C endpoint: median tumor weight (est.), dose: 25.0 mg/kg/injection, schedule: Q07DX005 (ip), vehicle: Klucel (hydroxypropylcellulose) (HPC), evaluated on day 30) was 146 % of control and the T/C (T/C endpoint: median tumor weight (est.), dose: 50.0 mg/kg/injection, schedule: Q07DX005 (ip), vehicle: Klucel (hydroxypropylcellulose) (HPC), evaluated on day 34) was 135 % of control [8 of 10 alive].
`O=NN(CCCl)C(=O)NCCCl` was tested, and the T/C (T/C endpoint: median tumor weight (est.), dose: 4.0 mg/kg/injection, schedule: Q07DX005 (ip), vehicle: saline with Tween-80, evaluated on day 30) was 130 % of control, the survivor count (T/C endpoint: median tumor weight (est.), dose: 32.0 mg/kg/injection, schedule: Q07DX005 (ip), vehicle: saline with Tween-80) was 2 of 10 on day 30 and the survivor count [1] was 4 of 10 on day 28. The survivor count (T/C endpoint: median tumor weight change, dose: 125.0 mg/kg/injection, schedule: Q01DX001 (ip), vehicle: saline + alcohol) was 2 of 10 on day 30 and the survivor count [2] was 0 of 10 on day 28.
For `C=CS(=O)(=O)c1ccccc1`, the T/C (T/C endpoint: mean tumor weight, dose: 12.5 mg/kg/injection, schedule: Q07DX005 (ip), vehicle: saline with Tween-80, evaluated on day 35) was 132 % of control.
